# Literature values as cited in patent US20240060990A1, “SPATIAL SIGNALING NETWORKS FOR MULTIPLEXED DRUG RESPONSE MEASUREMENT AND MODELING” (Georgia Tech Research Corporation, priority 2022, published 2024).
# At least one structure is not confirmed: it was looked up by name or label, or the drawing left a doubt.
# Tested on: PC-9 cell cultures
# Settings: PC-9 cells, combined with Osimertinib; cited from earlier work
smiles,measurement,value
"CC(=O)Nc1cccc(-n2c(=O)n(C3CC3)c(=O)c3c(Nc4ccc(I)cc4F)n(C)c(=O)c(C)c32)c1 [Tram, Trametinib]",cell apoptosis,enhanced
